Reference: PubChem BioAssay AID1053208 (Peter MacCallum Cancer Centre, 2014)
The whole screen tested about 17,000 reagents; this is an unselected part. 788 of all reagents (4.7%) count as active. 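Calls rest on z-score classes alone; an extra cut-off of viability at most 70% of control was not applied to them.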 Further read-outs or replicates are left out here. Reagent sequences are not shown.

- Aim: 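Synthetic lethal interactions between gene loss and doxorubicin in osteosarcoma cells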 (primary screen)
- Cells: mouse osteosarcoma cells, early-passage culture from an engineered mouse model of fibroblastic bone tumour
- Knock-down reagent: siRNA pool against mouse genes, 40 nM
- Timing: about 120 h (48 h before drug, then 72 h with drug)
- Treatment: doxorubicin 100 nM for 72 h, roughly 30-40% inhibitory dose
- Read-out: 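Luminescent ATP signal taken as viability with or without 100 nM doxorubicin for 72 h; mean of two wells set against non-targeting siRNA and turned into robust z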
- Reading the numbers: viability z-score with doxorubicin: higher = more viable cells under doxorubicin; viability z-score without drug: higher = more viable cells with knock-down alone
- Call rule: 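Called active if knock-down leaves viability unchanged without drug (z within -2 to 2) but lowers it with doxorubicin (z at or under -2)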

no.	gene knocked down	combined z-score class	viability z-score with doxorubicin	viability z-score without drug	outcome
1	Selenbp2	no change with or without drug	-1.46	-0.17	inactive
2	Gamt	no change with or without drug	1.35	0.17	inactive
3	Ostc	no change with or without drug	-0.67	0.51	inactive
4	Cops2	no change with or without drug	-0.67	0	inactive
5	Smad6	no change with or without drug	0.22	0.17	inactive
6	Tmem43	no change with or without drug	1.69	1.85	inactive
7	9530009G21Rik	no change with or without drug	-0.67	0.84	inactive
8	Trim21	no change with or without drug	-1.01	-1.18	inactive
9	Aifm1	no change with or without drug	-1.57	-1.01	inactive
10	Slc22a30	no change with or without drug	-0.56	-0.84	inactive
11	Tle5	no change with or without drug	-0.67	-0.17	inactive
12	Gpm6a	no change with or without drug	-0.67	0.17	inactive
13	Klf1	no change with or without drug	0.56	0.84	inactive
14	9330154K18Rik	no change with or without drug	-0.45	-0.51	inactive
15	Trim33	no change with or without drug	-1.12	0.17	inactive
16	Ccdc12	no change with or without drug	-1.12	-0.17	inactive
17	Efcab9	low cell count with doxorubicin only	-3.26	0.17	active
18	Ctsr	no change with or without drug	1.12	1.52	inactive

Next part, starting with the last 2 of the part before.
no.	gene knocked down	combined z-score class	viability z-score with doxorubicin	viability z-score without drug	outcome
17	Efcab9	low cell count with doxorubicin only	-3.26	0.17	active
18	Ctsr	no change with or without drug	1.12	1.52	inactive
19	Vmn1r239-ps	no change with or without drug	-0.11	-0.67	inactive
20	Duox2	low cell count without drug only	-0.22	-6.91	inactive
21	Apex2	no change with or without drug	-0.34	-0.51	inactive
22	Prrg2	low cell count with doxorubicin only	-2.02	-0.51	active
23	Mindy2	no change with or without drug	-1.35	-0.51	inactive
24	Calm2	no change with or without drug	-0.45	0.34	inactive
25	Gm9975	no change with or without drug	-1.8	-0.17	inactive
26	Or10j27	low cell count with and without drug	-2.92	-2.7	inactive
27	Psmc3ip	no change with or without drug	-0.56	-0.34	inactive
28	Prkar2a	no change with or without drug	1.57	0.84	inactive
29	Stk32c	no change with or without drug	-1.01	-0.51	inactive
30	Gm5084	no change with or without drug	1.46	0.84	inactive
31	Crybb1	low cell count with doxorubicin only	-2.25	-1.18	active
32	Mapk3	no change with or without drug	0.79	1.69	inactive
33	Dmrt3	high cell count with doxorubicin only	2.02	1.18	inactive
34	Defa20	high cell count with doxorubicin only	2.02	0.84	inactive
